Data on 1 substance can be found in publication PMC10696396, “HilE represses the activity of the Salmonella virulence regulator HilD via a mechanism distinct from that of intestinal long-chain fatty acids” (The Journal of Biological Chemistry, 2023).

No constants are given. Whether binding was seen depends on the method and setting.

For the test, the target named is T1, HilC (Salmonella enterica) (UniProt B8Y8F2).
T1 sequence: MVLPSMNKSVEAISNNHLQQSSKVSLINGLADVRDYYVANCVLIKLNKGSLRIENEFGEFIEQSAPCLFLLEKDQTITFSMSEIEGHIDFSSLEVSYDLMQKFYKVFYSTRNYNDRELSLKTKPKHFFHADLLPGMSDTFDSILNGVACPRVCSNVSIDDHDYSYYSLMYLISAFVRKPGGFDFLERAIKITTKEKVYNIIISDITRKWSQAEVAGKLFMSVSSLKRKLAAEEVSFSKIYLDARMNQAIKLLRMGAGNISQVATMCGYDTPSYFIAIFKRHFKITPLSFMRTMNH
Nature of the test: SEC-MALS; Superdex 75 Increase 10/300 GL, 50 mM NaH2PO4 pH 7.0, 200 mM NaCl, 0.5 ml/min; protein concentrations of 100 μM (Fig. 4, D and E); both purified.

Regarding HilE (Salmonella enterica), the binding result was “no binding”.
